Some of the results follow.
Experiments:
Test in all cases: log2 fold change, soluble protein after heating vs DMSO (PISA); higher = thermal stabilisation; K562 lysate, 10 uM; active = over 0.2 and 3.5 SD of the protein, either way, in both replicates (recomputed)
vemurafenib = compound: CCCS(=O)(=O)Nc1ccc(F)c(C(=O)c2c[nH]c3ncc(-c4ccc(Cl)cc4)cc23)c1F [vemurafenib]
Method in brief: (§1)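 Thermal stability, expressed as log-two fold change relative to solvent controls, is given from duplicates. Crude K562 extract in PBS pH 7.4 with 1 mM MgCl2, at 1 mg/mL protein, was treated with 10 μM compound for 30 min and heated in aliquots for 3 min across 48°C-58°C. After pooling, adjustment to 0.5% NP-40 at 4°C and centrifugation at 21,000xg for 90 min, supernatant protein was measured by TMTpro 16plex LC-MS/MS with channel sums equalised.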

Chains of the proteins cited; added tags and fusions are not shown. Lines headed by an entry give the natural chain unless they say otherwise; changes in a name come on top.
UniProt Q96EU6: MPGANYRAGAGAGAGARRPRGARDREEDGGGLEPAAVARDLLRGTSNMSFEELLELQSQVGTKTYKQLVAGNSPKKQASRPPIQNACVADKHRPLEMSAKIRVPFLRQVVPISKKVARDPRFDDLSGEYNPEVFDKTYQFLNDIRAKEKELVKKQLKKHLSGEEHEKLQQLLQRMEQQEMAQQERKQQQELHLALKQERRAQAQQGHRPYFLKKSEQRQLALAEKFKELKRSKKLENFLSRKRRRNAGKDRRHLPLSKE
UniProt P23297: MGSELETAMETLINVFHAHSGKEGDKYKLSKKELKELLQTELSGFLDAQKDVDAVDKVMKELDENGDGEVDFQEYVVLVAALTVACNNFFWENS
UniProt P28702: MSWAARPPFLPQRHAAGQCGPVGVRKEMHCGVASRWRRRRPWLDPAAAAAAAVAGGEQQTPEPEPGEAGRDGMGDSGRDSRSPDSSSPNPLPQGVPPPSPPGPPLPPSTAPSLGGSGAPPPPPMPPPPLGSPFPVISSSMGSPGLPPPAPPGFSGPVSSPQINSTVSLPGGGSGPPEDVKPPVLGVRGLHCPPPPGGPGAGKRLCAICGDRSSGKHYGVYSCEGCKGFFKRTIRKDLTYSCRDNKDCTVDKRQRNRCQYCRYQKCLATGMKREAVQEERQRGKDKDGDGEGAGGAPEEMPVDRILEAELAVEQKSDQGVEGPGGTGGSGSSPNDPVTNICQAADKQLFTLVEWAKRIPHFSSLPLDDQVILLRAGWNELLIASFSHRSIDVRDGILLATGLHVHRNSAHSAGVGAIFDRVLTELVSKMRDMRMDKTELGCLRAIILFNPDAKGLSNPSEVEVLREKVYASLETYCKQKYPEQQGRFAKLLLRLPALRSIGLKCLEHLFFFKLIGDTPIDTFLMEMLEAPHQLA
UniProt O75582, whole entry, looked up: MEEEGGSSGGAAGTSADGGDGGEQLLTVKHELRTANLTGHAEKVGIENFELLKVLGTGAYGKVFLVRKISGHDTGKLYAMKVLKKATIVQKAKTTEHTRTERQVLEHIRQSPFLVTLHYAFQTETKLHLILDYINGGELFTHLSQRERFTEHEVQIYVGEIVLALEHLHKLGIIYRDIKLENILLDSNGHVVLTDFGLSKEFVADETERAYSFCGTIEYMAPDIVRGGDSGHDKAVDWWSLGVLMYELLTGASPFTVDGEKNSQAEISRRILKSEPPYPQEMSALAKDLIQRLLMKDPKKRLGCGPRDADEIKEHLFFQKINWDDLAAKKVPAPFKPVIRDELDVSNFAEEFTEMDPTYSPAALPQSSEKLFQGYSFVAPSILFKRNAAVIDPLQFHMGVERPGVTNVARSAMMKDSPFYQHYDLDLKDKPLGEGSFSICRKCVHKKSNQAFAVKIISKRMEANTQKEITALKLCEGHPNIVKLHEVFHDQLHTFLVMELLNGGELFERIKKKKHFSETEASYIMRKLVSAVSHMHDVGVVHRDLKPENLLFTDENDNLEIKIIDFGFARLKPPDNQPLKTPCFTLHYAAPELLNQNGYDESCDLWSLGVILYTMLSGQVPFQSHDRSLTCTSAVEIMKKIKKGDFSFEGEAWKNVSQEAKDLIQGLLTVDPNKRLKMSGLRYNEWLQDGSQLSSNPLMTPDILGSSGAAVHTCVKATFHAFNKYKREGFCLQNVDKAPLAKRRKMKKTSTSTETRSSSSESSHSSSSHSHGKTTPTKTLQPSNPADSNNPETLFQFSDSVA
UniProt P62070: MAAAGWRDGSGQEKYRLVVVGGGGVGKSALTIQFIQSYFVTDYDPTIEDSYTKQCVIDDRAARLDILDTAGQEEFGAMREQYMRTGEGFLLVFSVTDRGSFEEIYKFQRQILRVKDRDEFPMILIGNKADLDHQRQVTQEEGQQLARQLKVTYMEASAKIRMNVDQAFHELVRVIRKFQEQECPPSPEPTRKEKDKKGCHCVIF
UniProt P78346: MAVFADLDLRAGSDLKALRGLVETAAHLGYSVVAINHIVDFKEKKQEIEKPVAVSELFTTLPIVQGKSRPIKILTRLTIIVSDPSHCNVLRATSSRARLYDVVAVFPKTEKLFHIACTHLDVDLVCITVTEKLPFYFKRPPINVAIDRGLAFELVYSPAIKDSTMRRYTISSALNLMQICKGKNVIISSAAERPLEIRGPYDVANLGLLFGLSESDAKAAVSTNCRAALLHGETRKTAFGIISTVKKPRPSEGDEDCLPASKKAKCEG

[1] = compound: CCCS(=O)(=O)Nc1ccc(F)c(C(=O)c2c[nH]c3ncc(Cl)cc23)c1F
Method in brief: as §1

barasertib = compound: CCN(CCCOc1ccc2c(Nc3cc(CC(=O)Nc4cccc(F)c4)[nH]n3)ncnc2c1)CCOP(=O)(O)O [barasertib]
Method in brief: as §1

[2] = compound: CC[C@@H]1C(=O)N(C)c2cnc(Nc3ccc(C(=O)NC4CCN(C)CC4)cc3OC)nc2N1C1CCCC1
Method in brief: as §1

volasertib = compound: CC[C@@H]1C(=O)N(C)c2cnc(Nc3ccc(C(=O)N[C@H]4CC[C@H](N5CCN(CC6CC6)CC5)CC4)cc3OC)nc2N1C(C)C [volasertib]
Method in brief: as §1

[3] = compound: CCn1c(C(=O)N(C2CC2)C2CC2)cc2c3c(ncn3C)c(Nc3cc(C)n(C)n3)nc21
Method in brief: as §1

[4] = compound: CCn1cc(-c2ccnc3[nH]c(-c4cccc(CN(C)C)c4)cc23)c(-c2ccc(NC(=O)N(C)C)cc2)n1
Method in brief: as §1

[5] = compound: CN1CCC(CNc2ccc3ncc(-c4cccc(OC(F)(F)F)c4)n3n2)CC1
Method in brief: as §1

saracatinib = compound: CN1CCN(CCOc2cc(OC3CCOCC3)c3c(Nc4c(Cl)ccc5c4OCO5)ncnc3c2)CC1 [saracatinib]
Method in brief: as §1

sotrastaurin = compound: CN1CCN(c2nc(C3=C(c4c[nH]c5ccccc45)C(=O)NC3=O)c3ccccc3n2)CC1 [sotrastaurin]
Method in brief: as §1

alvocidib = compound: CN1CC[C@H](c2c(O)cc(O)c3c(=O)cc(-c4ccccc4Cl)oc23)[C@H](O)C1 [alvocidib]
Method in brief: as §1

Tubastatin A = compound: CN1CCc2c(c3ccccc3n2Cc2ccc(C(=O)NO)cc2)C1 [Tubastatin A]
Method in brief: as §1

[6] = compound: CNC(=O)C1=CC=CC=C1NC2=NC(=NC=C2Cl)NC3=C(C=C(C=C3)N4CCOCC4)OC
Method in brief: as §1

defactinib = compound: CNC(=O)c1ccc(Nc2ncc(C(F)(F)F)c(NCc3nccnc3N(C)S(C)(=O)=O)n2)cc1 [defactinib]
Method in brief: as §1

[7] = compound: CNc1nc(-c2ccc3c(N)n[nH]c3c2)cc(N2C[C@@H](C(=O)NC3CCCCC3)CC[C@H]2C)n1
Method in brief: as §1

encorafenib = compound: COC(=O)N[C@@H](C)CNc1nccc(-c2cn(C(C)C)nc2-c2cc(Cl)cc(NS(C)(=O)=O)c2F)n1 [encorafenib]
Method in brief: as §1

[8] = compound: COC(=O)[C@H](CCSC)NC(=O)C1=C(C=C(C=C1)NC[C@H](CS)N)C2=CC=CC=C2
Method in brief: as §1

alisertib = compound: COc1cc(Nc2ncc3c(n2)-c2ccc(Cl)cc2C(c2c(F)cccc2OC)=NC3)ccc1C(=O)O [alisertib]
Method in brief: as §1

[9] = compound: COc1cc2nc(-c3cc(F)ccc3O)nc(N[C@@H]3CNC[C@H]3C(C)(C)O)c2cc1OC
Method in brief: as §1

gefitinib = compound: COc1cc2ncnc(Nc3ccc(F)c(Cl)c3)c2cc1OCCCN1CCOCC1 [gefitinib]
Method in brief: as §1

Measured: log2 fold change

RPS10 (UniProt P46783)
inactive: vemurafenib 0.023 | [1] 0.002 | barasertib -0.014 | [2] -0.002 | volasertib -0.031 | [3] -0.005 | [4] 0.026 | [5] -0.037 | saracatinib 0 | sotrastaurin 0.005 | alvocidib 0.01 | Tubastatin A 0.009 | [6] -0.032 | defactinib -0.006 | [7] -0.007 | encorafenib -0.008 | [8] 0.047 | alisertib -0.022 | [9] -0.008 | gefitinib -0.039

RPS24 isoform 4 (UniProt P62847)
inactive: vemurafenib -0.016 | [1] -0.002 | barasertib -0.013 | [2] 0.021 | volasertib 0.002 | [3] 0.006 | [4] 0.014 | [5] 0.002 | saracatinib 0.013 | sotrastaurin -0.007 | alvocidib -0.002 | Tubastatin A -0.002 | [6] -0.008 | defactinib -0.006 | [7] -0.009 | encorafenib -0.009 | [8] 0.047 | alisertib -0.004 | [9] -0.027 | gefitinib -0.017

RRP36 (UniProt Q96EU6)
inactive: vemurafenib -0.041 | [1] 0.038 | [2] 0.169 | volasertib -0.023 | [3] 0.012 | saracatinib 0.026 | sotrastaurin 0.138 | Tubastatin A -0.035 | [6] 0.112 | defactinib -0.169 | [7] 0.239 | encorafenib 0.148 | [8] -0.183 | [9] 0.056

RPS27L (UniProt Q71UM5)
inactive: vemurafenib 0 | [1] 0.028 | barasertib -0.006 | [2] -0.004 | volasertib 0.003 | [3] -0.001 | [4] 0.054 | [5] 0.012 | saracatinib -0.001 | sotrastaurin -0.013 | alvocidib 0.041 | Tubastatin A -0.022 | [6] 0.017 | defactinib 0.04 | [7] 0.041 | encorafenib 0.002 | [8] 0.044 | alisertib 0.004 | [9] 0.009 | gefitinib -0.051

S100A1 (UniProt P23297)
inactive: vemurafenib -0.044 | [1] -0.005 | [2] 0.027 | volasertib 0.082 | [3] 0.028 | [4] 0.007 | [5] -0.021 | saracatinib 0.052 | sotrastaurin -0.139 | alvocidib 0.083 | Tubastatin A 0.046 | [6] 0.018 | defactinib 0.008 | [7] 0.022 | encorafenib -0.016 | [8] -0.101 | alisertib -0.124 | [9] 0.02 | gefitinib 0.092

2 entries drawn at random from the list so far, as already listed:
S100A1 (UniProt P23297)
inactive: vemurafenib -0.044 | [1] -0.005 | [2] 0.027 | volasertib 0.082 | [3] 0.028 | [4] 0.007 | [5] -0.021 | saracatinib 0.052 | sotrastaurin -0.139 | alvocidib 0.083 | Tubastatin A 0.046 | [6] 0.018 | defactinib 0.008 | [7] 0.022 | encorafenib -0.016 | [8] -0.101 | alisertib -0.124 | [9] 0.02 | gefitinib 0.092

RRP36 (UniProt Q96EU6)
inactive: vemurafenib -0.041 | [1] 0.038 | [2] 0.169 | volasertib -0.023 | [3] 0.012 | saracatinib 0.026 | sotrastaurin 0.138 | Tubastatin A -0.035 | [6] 0.112 | defactinib -0.169 | [7] 0.239 | encorafenib 0.148 | [8] -0.183 | [9] 0.056

Additional results:

RXRB isoform 3 (UniProt P28702)
inactive: vemurafenib 0.028 | [1] 0.136 | barasertib 0.106 | [2] 0.008 | volasertib -0.125 | [4] -0.008 | [5] -0.089 | saracatinib -0.048 | sotrastaurin -0.051 | alvocidib 0.008 | [6] 0.126 | defactinib 0.05 | [7] -0.003 | encorafenib 0.066 | [8] -0.042 | alisertib -0.044 | [9] 0.073 | gefitinib 0.047

RPS15 (UniProt P62841)
inactive: vemurafenib 0.041 | [1] 0.02 | barasertib -0.03 | [2] 0.052 | volasertib -0.006 | [3] -0.042 | [4] -0.179 | [5] 0.157 | saracatinib 0.001 | sotrastaurin 0.053 | alvocidib -0.049 | Tubastatin A 0.023 | [6] 0.008 | defactinib 0.017 | [7] 0.035 | encorafenib -0.024 | [8] 0.025 | alisertib 0.015 | [9] -0.008 | gefitinib 0.002

RPS6KA5 (UniProt O75582)
inactive: vemurafenib -0.048 | [1] -0.073 | [2] 0.059 | volasertib -0.182 | [3] 0.005 | [4] -0.116 | [5] 0.087 | saracatinib -0.071 | sotrastaurin 0.185 | alvocidib 0.193 | Tubastatin A -0.239 | [6] 0.009 | defactinib 0.019 | [7] 0.072 | encorafenib 0.054 | [8] -0.005 | alisertib 0.041 | [9] 0.104 | gefitinib 0.11

RRAS2 (UniProt P62070)
inactive: vemurafenib 0.029 | [1] 0.038 | barasertib 0.002 | [2] 0.126 | volasertib -0.038 | [3] -0.028 | [4] -0.019 | [5] 0.089 | saracatinib 0.067 | sotrastaurin -0.006 | alvocidib -0.004 | Tubastatin A 0.046 | [6] -0.003 | defactinib -0.003 | [7] 0.021 | encorafenib 0.032 | [8] -0.058 | alisertib -0.044 | [9] 0.036 | gefitinib 0.107

RPP30 isoform 2 (UniProt P78346)
inactive: vemurafenib 0.016 | [1] -0.003 | barasertib 0.001 | [2] 0.016 | volasertib 0.015 | [3] -0.001 | [4] -0.004 | [5] 0.03 | saracatinib 0 | sotrastaurin -0.022 | alvocidib -0.02 | Tubastatin A -0.003 | [6] 0.014 | defactinib -0.036 | [7] 0.028 | encorafenib -0.018 | [8] -0.035 | alisertib 0.003 | [9] 0.014 | gefitinib 0.004

RPLP0 (UniProt P05388)
inactive: vemurafenib 0.011 | [1] -0.018 | barasertib -0.027 | [2] -0.004 | volasertib -0.009 | [3] 0.024 | [4] -0.036 | [5] 0.034 | saracatinib -0.01 | sotrastaurin -0.046 | alvocidib 0.034 | Tubastatin A 0.017 | [6] -0.026 | defactinib -0.007 | [7] 0.049 | encorafenib 0.008 | [8] 0.016 | alisertib 0.028 | [9] -0.006 | gefitinib 0.004

RPS27A (UniProt P62979)
inactive: vemurafenib -0.071 | [1] -0.021 | barasertib -0.056 | [2] 0.076 | volasertib 0.016 | [3] -0.031 | [4] 0.067 | [5] 0.008 | saracatinib 0.044 | sotrastaurin -0.034 | alvocidib -0.018 | Tubastatin A -0.019 | [6] -0.031 | defactinib -0.026 | [7] -0.09 | encorafenib -0.046 | [8] 0.052 | alisertib 0.031 | [9] -0.021 | gefitinib -0.048

From the supplement of paper PMC10849652
